Assay results reported in patent CN104447994A.
No constants are given. Whether binding was seen depends on the method and setting. Some results given as binding are weak or reduced against the parent protein; the word gives no strength. For some of these results: Where a sequence is shown, tags or fusion partners need not be part of it.

Tests used:
[1] = molecular target: T1, 重组p63抗原蛋白 (recombinant p63 fragment expressed in E. coli, with PelB signal peptide and His tag) (UniProt Q9H3D4); assay: Western blot, Figure 2
T1 sequence (looked up): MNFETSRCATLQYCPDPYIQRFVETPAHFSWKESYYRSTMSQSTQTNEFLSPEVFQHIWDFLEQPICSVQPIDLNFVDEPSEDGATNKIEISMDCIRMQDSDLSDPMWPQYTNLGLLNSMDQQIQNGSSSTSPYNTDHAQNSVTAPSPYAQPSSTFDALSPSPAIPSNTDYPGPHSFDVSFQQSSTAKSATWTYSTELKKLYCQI

[2] = molecular target: T1, 重组p63抗原蛋白 (recombinant p63 fragment expressed in E. coli, with PelB signal peptide and His tag); assay: Western blot on recombinant p63, antibody diluted 1:1000
[3] = molecular target: T2, p63 (native p63 in tumour cells and tissues) (UniProt Q9H3D4); assay: Western blot
T2 sequence (looked up): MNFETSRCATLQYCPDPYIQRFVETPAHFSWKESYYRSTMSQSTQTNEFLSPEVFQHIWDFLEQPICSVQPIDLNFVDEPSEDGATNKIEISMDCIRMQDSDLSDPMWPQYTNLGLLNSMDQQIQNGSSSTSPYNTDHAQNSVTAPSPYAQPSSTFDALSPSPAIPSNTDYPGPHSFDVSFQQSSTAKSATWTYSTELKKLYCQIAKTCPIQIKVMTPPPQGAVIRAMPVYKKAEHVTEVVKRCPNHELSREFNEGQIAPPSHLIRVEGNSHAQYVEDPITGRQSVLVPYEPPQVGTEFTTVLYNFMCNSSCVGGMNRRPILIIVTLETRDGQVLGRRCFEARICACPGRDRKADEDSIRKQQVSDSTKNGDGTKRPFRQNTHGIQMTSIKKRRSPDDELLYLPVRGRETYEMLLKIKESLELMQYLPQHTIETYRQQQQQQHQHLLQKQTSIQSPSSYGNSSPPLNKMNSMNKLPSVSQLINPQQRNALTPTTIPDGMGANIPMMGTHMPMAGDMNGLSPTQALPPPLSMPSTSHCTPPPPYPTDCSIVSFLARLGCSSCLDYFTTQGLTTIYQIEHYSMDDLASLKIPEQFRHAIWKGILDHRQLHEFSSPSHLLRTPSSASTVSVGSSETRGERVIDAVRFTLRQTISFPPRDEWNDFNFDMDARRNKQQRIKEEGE

[4] = molecular target: T1, 重组p63抗原蛋白 (recombinant p63 fragment expressed in E. coli, with PelB signal peptide and His tag); assay: Western blot

Measured: binding

B1: 60738-10D8单克隆抗体 (monoclonal antibody secreted by hybridoma 60738-10D8) (antibody, V domains shown)
VH: QVQLQESGAELVKPGASVKLSCKASGFTFSSSHIYWVKQRPGQGLEWIGGINHSNAGINFTEKFKNKATLTVDKSSSTAYMQVSSLTSEDSAVYYCKQVSYWGQGTLVTVSA
VL: DIVITQDELSLPVSLGDHASISCRSSQSLVFSDGNTYLHWYLQKPGQSPKLLIYIVFNRFSGVPDRFSGSGSGTDFTHKISRVEAEDLGVYFCSQSTHVTAYTFGGGTKLEIKR
binds: all assays above
